These are yes or no findings as the source states them, for the method shown. Binding seen in cells or lysates may run through a third protein. A result given as binding can be weak or reduced; the word gives no strength.

The target of this experiment is T1, DAP5, endogenous in MEFs (mouse (endogenous in MEFs)) (UniProt Q62448).
T1 sequence: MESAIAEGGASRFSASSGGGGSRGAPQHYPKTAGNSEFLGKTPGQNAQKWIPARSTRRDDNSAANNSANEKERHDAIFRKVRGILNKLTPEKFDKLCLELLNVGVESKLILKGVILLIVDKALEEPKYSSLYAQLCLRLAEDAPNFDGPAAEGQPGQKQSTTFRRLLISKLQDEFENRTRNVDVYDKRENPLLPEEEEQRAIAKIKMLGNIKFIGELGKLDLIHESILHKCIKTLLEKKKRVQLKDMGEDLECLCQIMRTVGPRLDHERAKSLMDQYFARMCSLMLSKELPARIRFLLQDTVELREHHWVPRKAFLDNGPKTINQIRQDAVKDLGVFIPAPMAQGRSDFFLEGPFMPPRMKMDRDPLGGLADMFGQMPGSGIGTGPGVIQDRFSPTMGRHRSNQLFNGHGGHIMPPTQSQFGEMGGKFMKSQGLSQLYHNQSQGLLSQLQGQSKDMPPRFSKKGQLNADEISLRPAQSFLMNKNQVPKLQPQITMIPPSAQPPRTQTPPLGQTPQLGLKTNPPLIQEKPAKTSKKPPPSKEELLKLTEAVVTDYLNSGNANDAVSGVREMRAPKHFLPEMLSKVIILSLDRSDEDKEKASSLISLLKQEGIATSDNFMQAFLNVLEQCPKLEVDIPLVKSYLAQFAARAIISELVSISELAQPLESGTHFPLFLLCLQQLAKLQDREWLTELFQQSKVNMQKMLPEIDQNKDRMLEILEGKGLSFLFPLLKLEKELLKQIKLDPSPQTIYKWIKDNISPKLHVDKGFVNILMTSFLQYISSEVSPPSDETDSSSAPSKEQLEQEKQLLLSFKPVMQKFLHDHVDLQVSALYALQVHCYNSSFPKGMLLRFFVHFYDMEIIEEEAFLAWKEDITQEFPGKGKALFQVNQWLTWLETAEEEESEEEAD
As to the kind of experiment: co-IP.

Regarding “HA-tagged human IRF5-V5, stably expressed in Irf5-/- MEFs”, the binding result is “binds”.
